System: lung cancer cell lines
Assay: Drug tolerance in lung cancer cell models
Format: cell-based
Procedure: FIGS. 3A-3D present exemplary data showing that Type I PRMT inhibition enhanced cancer drug efficacy. […] FIGS. 3B-3D present data showing the correlation between endogenous STAT1 expression levels and the efficacy of type I PRMT inhibition. […] Gray dots indicate cell lines that were tested for the efficacies of type I PRMT inhibition (by MS023).
Can type I PRMT inhibition provide a general strategy for reducing drug tolerance and enhance efficacies of SOC drugs? STAT1 signaling can be activated by various sources in tumors, including interferon (IFN)-producing immune cells in the tumor microenvironment, endogenous nucleic acids, and cancer therapeutics (FIG. 2H)^31. […] We also observed efficacy of MS023 with gemcitabine in various pancreatic cancer cell lines (FIG. 6A).

CC(C)Oc1ccc(-c2c[nH]cc2CN(C)CCN)cc1 [MS023]
tolerance-reducing efficacies (AUC) versus MDR1 expression (each dot a cancer cell line model (FIG. 11)): did not correlate with MDR1 expressions
efficacy (AUC of dose-response) versus endogenous STAT1 expression (panel of lung cancer drug tolerance models without added IFNγ (FIGS. 3C, 3D)): correlated with endogenous STAT1 expression levels

— patent publication US20240299356A1, “DEVELOPMENT OF PRMT-TARGETING THERAPY TO ENHANCE EGFR-TARGETING DRUG EFFICACY IN NSCLC” (The Regents of the University of California, priority 2021, published 2024)
